In PubChem BioAssay AID493014 (National Center for Advancing Translational Sciences (NCATS), 2011):
Some of the results follow. Further columns of the screen follow, without active or inactive calls. The list favours compounds with an active or inconclusive main result. The note in brackets gives the kind of curve behind each potency; many fits are weak.

Test: qHTS Assay to Find Inhibitors of Chronic Active B-Cell Receptor Signaling
Conditions: ABC-DLBCL IkBa-CBG/CBR reporter, luminescence ratio (green luciferase fused to IkBa over red control in TMD8 lymphoma cells), 4 h
In short: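 TMD8 ABC-DLBCL cells carrying doxycycline-inducible green luciferase fused to IkappaBalpha plus unfused red luciferase were exposed to compounds (up to 46 uM) for 4 hrs at 37C. Activity came from the overlap-corrected green/red luminescence ratio.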

[1] = measured here: CBR red luminescence, cell number
[2] = measured here: IkBa-CBG green luminescence

SMILES	AC50 [1]	AC50 [2]
COc1cc2c(cc1OC)CN(CCC(=O)c1ccc(Br)cc1)CC2	22.4 µM [falling, single point]	
COc1cccc(-c2cc(C(=O)NCC3CCCO3)c3ccccc3n2)c1 (stereo not given)	4.11 µM [rising, partial curve, poor fit]	
COc1ccc(NC(=O)Cn2nnc(C(=O)Nc3ccccc3C)c2N)cc1	35.5 µM [falling, single point]	
CCc1nnc(NC(=O)CSc2nnc(-c3ccccc3OC)n2-c2ccc(C)cc2)s1	0.651 µM [falling, partial curve, poor fit]	
COc1cccc(CN2CCC(C(=O)N3CCN(c4ccccc4F)CC3)CC2)c1OC	18.4 µM [rising, partial curve, poor fit]	
Cc1ccc(NC(=O)C2CCN(S(=O)(=O)c3ccc4c(c3)CCCC(=O)N4)CC2)c(Br)c1	1 µM [rising, full curve, poor fit]	
Cc1ccccc1N1C(=O)Cc2ccccc2C1=O	35.5 µM [falling, single point]	
O=C(c1ccco1)N1CCN(C(=O)c2cccs2)CC1	2.06 µM [rising, single point]	
CCn1c(=O)c(C(=O)Nc2ccc(C)cc2)c(O)c2ccccc21	0.708 µM [falling, full curve]	
Nc1nc2nc(-c3cccs3)cc(C(F)(F)F)n2n1	1.41 µM [rising, full curve, poor fit]	
CC1CCN(c2ccc(-c3cccs3)nn2)CC1	3.16 µM [falling, full curve]	
Cc1ccccc1OCC(=O)N/N=C/c1ccc(Sc2nc3ccccc3s2)o1	32.6 µM [rising, partial curve, poor fit]	
CCc1ccccc1-n1c(SCC(=O)Nc2ccc(C)cc2)nc2n[nH]c(C)c2c1=N	17.8 µM [falling, single point]	
Cc1ccc(NC(=O)CC2(CC(=O)O)CCCC2)c(C)c1	3.55 µM [falling, single point]	
O=C1Nc2ccccc2C12OCC(COc1ccc(Cl)cc1)O2 (stereo not given)	0.366 µM [rising, full curve, poor fit]	
Cc1cccc(C)c1OCC(=O)Nc1ccc2c(c1)OCCO2	3.98 µM [falling, full curve, poor fit]	
COc1ccc(CNC(=O)CSc2ncnc3nc[nH]c23)cc1	12.6 µM [rising, partial curve, poor fit]	
CCC/C(C)=N/NC(=O)c1ccccc1O	1.46 µM [falling, full curve, poor fit]	
COC(=O)c1c(NC(=O)CN2CCN(c3ncccn3)CC2)sc(C(N)=O)c1C	7.94 µM [rising, partial curve]	
CCOc1ccc2[nH]c(=O)c(CN(CC3COCCO3)C(=O)c3ccc(C)cc3)cc2c1 (stereo not given)	5.62 µM [falling, single point]	
Cc1ccc(S(=O)(=O)/N=C2/NC(=O)/C(=C\c3cc(Br)cc(Br)c3O)S2)cc1	15.8 µM [rising, single point]	
Cc1ccc(-c2nc3sc4c(c3c(=O)n2N)CCCC4)cc1	0.731 µM [rising, full curve, poor fit]	

Random excerpt: five records from the list
SMILES	AC50 [1]	AC50 [2]
CCc1ccccc1-n1c(SCC(=O)Nc2ccc(C)cc2)nc2n[nH]c(C)c2c1=N	17.8 µM [falling, single point]	
COc1ccc(CNC(=O)CSc2ncnc3nc[nH]c23)cc1	12.6 µM [rising, partial curve, poor fit]	
Cc1ccc(S(=O)(=O)/N=C2/NC(=O)/C(=C\c3cc(Br)cc(Br)c3O)S2)cc1	15.8 µM [rising, single point]	
CCC/C(C)=N/NC(=O)c1ccccc1O	1.46 µM [falling, full curve, poor fit]	
Cc1ccc(NC(=O)CC2(CC(=O)O)CCCC2)c(C)c1	3.55 µM [falling, single point]	

The list continues.

SMILES	AC50 [1]	AC50 [2]
C=C(C)CNC(=O)c1ccc(OC2CCN(S(=O)(=O)N(C)C)CC2)cc1	15.8 µM [rising, single point]	
O=C(Nc1ccccc1-c1ccccc1)c1cnccn1	3.16 µM [rising, full curve, poor fit]	
COc1ccc(C(=O)Nc2ccc3c(c2)N(C2CCCC2)C(=O)c2ccccc2S3)cc1OC	3.16 µM [falling, partial curve, poor fit]	
CC(Nc1cccc([N+](=O)[O-])c1)C(=O)Nc1ccc(S(=O)(=O)N2CCCC2)cc1 (stereo not given)	32.6 µM [falling, single point]	
CCOc1cccc(SCc2noc(C(=O)NC(C)C)c2C(=O)O)c1	35.5 µM [falling, single point]	
COc1ccc(C(=O)N/N=C/c2ccc(OC)c(OS(=O)(=O)c3ccccc3)c2)cc1	7.31 µM [falling, partial curve]	
Cc1ccc(C)c2[nH]c(=O)c(CN(CCN3CCCC3)C(=O)Nc3ccc(F)cc3)cc12	22.4 µM [falling, single point]	
COc1cccc(/C=N/NC(=O)c2ccc3nc[nH]c3c2)c1O	17.8 µM [falling, single point]	
COc1ccc(S(=O)(=O)N2CCN(C(=O)CN3C(=O)NC4(CCCC4)C3=O)CC2)cc1	6.31 µM [falling, single point]	
COC(=O)CSc1nnc(SCc2ccc(Cl)cc2)s1	9.2 µM [falling, partial curve, poor fit]	
Cc1c(NS(=O)(=O)c2ccc(N=NN(C)C)cc2)c(=O)n(-c2ccccc2)n1C	22.4 µM [rising, partial curve, poor fit]	
COc1cccc(Nc2nc(N)c([N+](=O)[O-])c(NCc3ccco3)n2)c1	6.31 µM [rising, single point]	
CC1CCN(C(=O)c2ccc(S(=O)(=O)Cc3cc(F)ccc3F)c([N+](=O)[O-])c2)CC1	0.58 µM [falling, full curve, poor fit]	
CCOC(=O)c1cc(-c2ccccc2)n[nH]1	35.5 µM [falling, single point]	
O=C(CSc1nc(=O)n(Cc2ccco2)c2c1CCC2)NCc1ccccc1Cl	14.1 µM [falling, single point]	
CSC(=NNC(=O)c1ccccc1O)SC	16.4 µM [falling, partial curve]	
CCOC(=O)/C=C(\C)Sc1cc(=O)oc2ccccc12	16.4 µM [falling, partial curve, poor fit]	
CCCCCNC(=O)c1ccc2c(=O)[nH]c3c(C(=O)NCC4CCCO4)sc(=S)n3c2c1 (stereo not given)	18.4 µM [falling, partial curve]	
Cc1ccc(NC(=O)c2cnccn2)nc1	0.501 µM [falling, full curve]	
COc1ccc(C(=O)OCC(=O)Nc2ccc(Cl)c(C(F)(F)F)c2)c(OC)c1OC	32.6 µM [falling, single point]	
O=C(NC(=S)Nc1ccccc1N1CCCC1)c1ccc(F)cc1	22.4 µM [falling, single point]	
CCOc1ccc(CCNC(=O)CN2C(=O)CCSc3ccccc32)cc1	1.26 µM [rising, full curve, poor fit]	

SMILES	AC50 [1]	AC50 [2]
COc1ccc(Cc2nnc(N/N=C/c3ccc(O)cc3)[nH]c2=O)cc1OC	11.6 µM [falling, partial curve]	
CCN1C(=O)c2cccc3c(NC(=O)c4ccccc4)ccc1c23	20.6 µM [rising, single point]	
O=c1c(Cl)c(NCCO)cnn1-c1cccc(Cl)c1	0.1 µM [rising, full curve, poor fit]	
COc1cc(C(=O)Nc2ccc(N(C)C)cc2)c([N+](=O)[O-])cc1OC	3.55 µM [rising, partial curve, poor fit]	
Clc1ccc(-n2ncc3c(NCc4ccco4)ncnc32)cc1	11.2 µM [falling, partial curve, poor fit]	
CC(NC(=O)CNC(=O)c1ccccc1Br)c1cccs1 (stereo not given)	0.13 µM [rising, full curve, poor fit]	
CCn1cc(/C=N/NC(=O)c2ccc3c(c2)OCO3)c(C)n1	4.61 µM [falling, partial curve, poor fit]	
O=C1c2cc(F)ccc2OC2(CCNCC2)C12CC(c1ccccc1)=NO2 (stereo not given)	0.355 µM [falling, full curve, poor fit]	
COC(=O)c1sccc1NC(=O)c1ccncc1	15.8 µM [rising, partial curve]	
C(/C=C/c1ccco1)=N/N1CCN(c2ccccc2)CC1	3.16 µM [rising, full curve, poor fit]	
Nn1cnnc1SCC(=O)Nc1ccc(C2CCCCC2)cc1	0.282 µM [rising, full curve, poor fit]	
N#CC1=C(N)NC(SCC(=O)Nc2ccccc2)=C(C#N)C12CCCCC2	32.6 µM [falling, single point]	
COc1cc(SC)ccc1C(=O)NCc1ccccc1	29.1 µM [falling, single point]	
Cc1cc(Nc2ccccc2)n(-c2nc3ccccc3[nH]2)n1		32.6 µM [falling, partial curve, poor fit]
O=C(COc1ccc2ccccc2c1)N1CCNCC1	22.4 µM [falling, single point]	
COc1ccc(CCNc2ncnc3c2c(-c2ccccc2)cn3-c2cccc(Cl)c2)cc1OC	3.98 µM [rising, single point]	
CN1CCN(C(=O)CCN2C(=O)/C(=C/c3ccccc3Cl)SC2=S)CC1	35.5 µM [falling, partial curve, poor fit]	
CN(C)c1ccc(C(CNS(=O)(=O)c2ccc(F)c(F)c2)c2c[nH]c3ccccc23)cc1 (stereo not given)	23.1 µM [falling, single point]	25.9 µM [rising, partial curve, poor fit]
COc1cc(C2CC(=O)Oc3c(C(CCN4CCCC(C)C4)c4ccc(N(C)C)cc4)c(OC)cc(OC)c32)cc(OC)c1OC (stereo not given)	4.47 µM [falling, full curve, poor fit]	
O=C(CCS(=O)(=O)c1cccc2nsnc12)NC1CCCCCC1	0.0891 µM [falling, full curve, poor fit]	
